Assay [1] concerns the target T1, SFB-tagged mouse Nfatc1, full-length (mouse) (UniProt O88942).
T1 sequence: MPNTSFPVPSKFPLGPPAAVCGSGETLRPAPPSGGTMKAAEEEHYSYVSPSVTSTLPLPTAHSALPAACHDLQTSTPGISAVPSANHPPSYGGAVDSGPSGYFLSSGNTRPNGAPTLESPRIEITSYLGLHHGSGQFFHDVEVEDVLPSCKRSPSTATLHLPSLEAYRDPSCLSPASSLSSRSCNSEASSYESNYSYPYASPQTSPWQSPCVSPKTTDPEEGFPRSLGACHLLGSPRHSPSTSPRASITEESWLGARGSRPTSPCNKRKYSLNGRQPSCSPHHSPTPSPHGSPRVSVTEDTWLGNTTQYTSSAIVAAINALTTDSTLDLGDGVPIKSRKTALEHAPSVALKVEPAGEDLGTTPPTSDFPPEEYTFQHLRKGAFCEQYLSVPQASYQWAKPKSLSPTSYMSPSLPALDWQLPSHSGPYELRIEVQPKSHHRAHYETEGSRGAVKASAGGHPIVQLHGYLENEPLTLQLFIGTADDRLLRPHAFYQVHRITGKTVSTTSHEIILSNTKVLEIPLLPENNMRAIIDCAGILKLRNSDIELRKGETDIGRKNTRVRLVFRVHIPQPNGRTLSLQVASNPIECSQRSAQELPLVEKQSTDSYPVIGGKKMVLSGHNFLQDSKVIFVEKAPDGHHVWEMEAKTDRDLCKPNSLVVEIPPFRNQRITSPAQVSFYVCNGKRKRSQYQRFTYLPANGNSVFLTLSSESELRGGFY
Kind of assay: co-IP; co-IP of Yap with Nfatc1 (Supplementary Fig. 8e); constructs and cells not told in the text shown.

Assay [2] concerns the target MYC-tagged mouse Tead3 truncation mutant: C-terminal YAP-binding domain (mouse). Kind of assay: co-IP; HEK293T cells co-transfected with SFB-Nfatc1 and MYC-Tead3 (full-length or truncated); pulldown with a MYC-specific antibody; blots for MYC and FLAG.
Assay [3] has as its target MYC-tagged mouse Tead3 truncation mutant: TEA domain (N-terminal DBD) (mouse). The description is as above.

Results are given in words; binding and its absence hold for the method and conditions named. Binding seen in cells or lysates may run through a third protein. For part of these data: Binding can be weak; no strength is given. Sequences can lack the tags named with a protein.

In the case of Yap, the binding result in assay [1] is reported as “no binding”.

B1: SFB-tagged mouse Nfatc1, full-length (protein, UniProt O88942 1-717)
chain: MPNTSFPVPSKFPLGPPAAVCGSGETLRPAPPSGGTMKAAEEEHYSYVSPSVTSTLPLPTAHSALPAACHDLQTSTPGISAVPSANHPPSYGGAVDSGPSGYFLSSGNTRPNGAPTLESPRIEITSYLGLHHGSGQFFHDVEVEDVLPSCKRSPSTATLHLPSLEAYRDPSCLSPASSLSSRSCNSEASSYESNYSYPYASPQTSPWQSPCVSPKTTDPEEGFPRSLGACHLLGSPRHSPSTSPRASITEESWLGARGSRPTSPCNKRKYSLNGRQPSCSPHHSPTPSPHGSPRVSVTEDTWLGNTTQYTSSAIVAAINALTTDSTLDLGDGVPIKSRKTALEHAPSVALKVEPAGEDLGTTPPTSDFPPEEYTFQHLRKGAFCEQYLSVPQASYQWAKPKSLSPTSYMSPSLPALDWQLPSHSGPYELRIEVQPKSHHRAHYETEGSRGAVKASAGGHPIVQLHGYLENEPLTLQLFIGTADDRLLRPHAFYQVHRITGKTVSTTSHEIILSNTKVLEIPLLPENNMRAIIDCAGILKLRNSDIELRKGETDIGRKNTRVRLVFRVHIPQPNGRTLSLQVASNPIECSQRSAQELPLVEKQSTDSYPVIGGKKMVLSGHNFLQDSKVIFVEKAPDGHHVWEMEAKTDRDLCKPNSLVVEIPPFRNQRITSPAQVSFYVCNGKRKRSQYQRFTYLPANGNSVFLTLSSESELRGGFY
As for B1, the figures for the binding result in assay [2] and in assay [3] were “no binding” and “binds”, respectively.

(Values after PMC10944492.)
